# According to patent US20070054916A1, “Aryl nitrogen-containing bicyclic compounds and methods of use” (Amgen Inc., priority 2004, published 2007):
# Sequences of proteins named here, by UniProt entry; tags and fusion partners are left off. Residues count along the entry.
# UniProt Q02763, 23-1124: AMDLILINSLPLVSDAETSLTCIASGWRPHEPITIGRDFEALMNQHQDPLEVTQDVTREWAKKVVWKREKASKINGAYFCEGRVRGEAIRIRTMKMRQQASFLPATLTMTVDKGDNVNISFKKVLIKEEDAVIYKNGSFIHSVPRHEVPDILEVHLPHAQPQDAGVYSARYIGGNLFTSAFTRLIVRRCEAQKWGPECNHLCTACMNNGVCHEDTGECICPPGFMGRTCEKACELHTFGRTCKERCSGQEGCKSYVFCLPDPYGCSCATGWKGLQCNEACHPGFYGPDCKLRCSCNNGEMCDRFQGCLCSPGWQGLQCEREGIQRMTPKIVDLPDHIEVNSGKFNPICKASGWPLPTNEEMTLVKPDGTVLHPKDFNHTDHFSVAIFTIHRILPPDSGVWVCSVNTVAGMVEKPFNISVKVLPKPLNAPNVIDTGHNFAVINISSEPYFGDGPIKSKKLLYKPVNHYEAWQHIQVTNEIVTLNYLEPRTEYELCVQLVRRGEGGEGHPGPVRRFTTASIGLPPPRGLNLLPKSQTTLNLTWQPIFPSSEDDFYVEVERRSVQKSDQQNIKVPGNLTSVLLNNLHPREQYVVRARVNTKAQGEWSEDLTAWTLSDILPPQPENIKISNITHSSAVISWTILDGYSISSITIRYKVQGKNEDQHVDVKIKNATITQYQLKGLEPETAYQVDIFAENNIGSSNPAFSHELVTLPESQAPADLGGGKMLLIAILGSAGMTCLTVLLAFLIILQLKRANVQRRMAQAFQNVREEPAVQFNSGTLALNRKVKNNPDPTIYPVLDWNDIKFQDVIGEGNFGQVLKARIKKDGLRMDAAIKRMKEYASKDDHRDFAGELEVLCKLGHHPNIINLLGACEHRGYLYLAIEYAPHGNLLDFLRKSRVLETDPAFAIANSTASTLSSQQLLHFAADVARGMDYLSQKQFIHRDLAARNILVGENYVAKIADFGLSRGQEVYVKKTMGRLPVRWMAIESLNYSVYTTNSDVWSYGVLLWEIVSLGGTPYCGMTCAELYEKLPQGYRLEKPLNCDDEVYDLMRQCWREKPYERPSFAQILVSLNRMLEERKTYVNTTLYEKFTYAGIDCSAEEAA
# Some of these results come from one statement about several compounds together.
# Molecular target: Tie-2 kinase enzyme (Homo sapiens, UniProt Q02763)
# Test: Tie-2 Homogenous Time Resolved Flourescent (HTRF) kinase assay
# Type: biochemical
# Conditions: read-out: IC50's for the inhibition of Tie-2 as measured by the HTRF assay
row,Compound,IC50 [nM]
1,"Cc1cc(F)c(C(=O)Nc2cccc(C(F)(F)F)c2)cc1-c1ccc2nc(NC3CC3)ncc2c1 [Example 39, 5-(2-(cyclopropylamino)-6-quinazolinyl)-2-fluoro-4-methyl-N-(3-(trifluoromethyl)phenyl)benzamide]",≤ 1000
2,"Cc1ccc(C(=O)NC2CC2)cc1-c1ccc2nc(N)ncc2c1 [Example 40, 3-(2-amino-6-quinazolinyl)-N-cyclopropyl-4-methylbenzamide]",≤ 1000
3,"COc1ccc(C(F)(F)F)cc1NC(=O)c1ccc(C)c(-c2ccc3nc(N)ncc3c2)c1 [Example 41, 3-(2-amino-6-quinazolinyl)-4-methyl-N-(2-(methyloxy)-5-(trifluoromethyl)phenyl)benzamide]",≤ 1000
4,"COc1ccc(C(F)(F)F)cc1NC(=O)c1ccc(C)c(-c2ccc3nc(NCCN4CCOCC4)ncc3c2)c1 [Example 43, 4-methyl-N-(2-(methyloxy)-5-(trifluoromethyl)phenyl)-3-(2-((2-(4-morpholinyl)ethyl)amino)-6-quinazolinyl) benzamide]",≤ 1000
5,Cc1ccc(C(=O)NC2CC2)cc1-c1ccc2nc(NCCN(C)C)ncc2c1 [Example 44],≤ 1000
6,"Cc1ccc(C(=O)NC2CC2)cc1-c1ccc2nc(NC3CCN(C)CC3)ncc2c1 [Example 45, N-cyclopropyl-4-methyl-3-(2-((1-methyl-4-piperidinyl)amino)-6-quinazolinyl) benzamide]",≤ 1000
7,"Cc1ccc(C(=O)NC2CC2)cc1-c1ccc2nc(NCC3CCCCN3C(=O)OC(C)(C)C)ncc2c1 (stereo not shown) [Example 46, 1,1-dimethylethyl 2-(((6-(5-((cyclopropylamino)carbonyl)-2-methylphenyl)-2-quinazolinyl)amino)methyl)-1-piperidinecarboxylate]",≤ 1000
8,"Cc1ccc(C(=O)NC2CC2)cc1-c1ccc2nc(NCCN3CCCCC3)ncc2c1 [Example 47, N-cyclopropyl-4-methyl-3-(2-((2-(1-piperidinyl)ethyl)amino)-6-quinazolinyl) benzamide]",≤ 1000
9,"Cc1ccc(C(=O)NC2CC2)cc1-c1ccc2nc(N3CCN(C)CC3)ncc2c1 [Example 48, N-cyclopropyl-4-methyl-3-(2-(4-methyl-1-piperazinyl)-6-quinazolinyl) benzamide]",≤ 1000
10,"Cc1ccc(C(=O)NC2CC2)cc1-c1ccc2nc(NCCN3CCN(C(=O)OC(C)(C)C)CC3)ncc2c1 [Example 49, 1,1-dimethylethyl 4-(2-((6-(5-((cyclopropylamino)carbonyl)-2-methylphenyl)-2-quinazolinyl)amino)ethyl)-1-piperazinecarboxylate]",≤ 1000
11,"Cc1ccc(C(=O)Nc2ccc(OC3CCN(C)CC3)c(C(F)(F)F)c2)cc1-c1ccc2nc(NC3CC3)ncc2c1 [Example 50, 3-(2-(cyclopropylamino)-6-quinazolinyl)-4-methyl-N-(4-((1-methyl-4-piperidinyl)oxy)-3-(trifluoromethyl)phenyl)benzamide]",≤ 1000
12,"O=C(Nc1cccc(C(F)(F)F)c1)c1cccc(-c2ccc3ccnc(O)c3c2)c1 [Example 51, 3-(1-hydroxy-7-isoquinolinyl)-N-(3-(trifluoromethyl)phenyl)benzamide]",≤ 1000
13,"Nc1ncc2cc(-c3cccc(C(=O)Nc4cccc(C(F)(F)F)c4)c3)ccc2n1 [Example 52, 3-(2-amino-6-quinazolinyl)-N-(3-(trifluoromethyl)phenyl)benzamide]",≤ 1000
14,"CNc1ncc2cc(-c3cccc(C(=O)Nc4cccc(C(F)(F)F)c4)c3)ccc2n1 [Example 53, 3-(2-(methylamino)-6-quinazolinyl)-N-(3-(trifluoromethyl)phenyl)benzamide]",≤ 1000
15,"Nc1ncc2cc(-c3cccc(C(=O)Nc4cc(C(F)(F)F)ccc4N4CCCCC4)c3)ccc2n1 [Example 54, 3-(2-amino-6-quinazolinyl)-N-(2-(1-piperidinyl)-5-(trifluoromethyl)phenyl)benzamide]",≤ 1000
16,"CN(C)c1cccc2c(S(=O)(=O)Nc3cccc(-c4ccc5nc(N)ncc5c4)c3)cccc12 [Example 55, N-(3-(2-amino-6-quinazolinyl)phenyl)-5-(dimethylamino)-1-naphthalenesulfonamide]",≤ 1000
17,"Cc1ccc(C(=O)Nc2cccc(NC(=O)CN3CCOCC3)c2C)cc1-c1ccc2nc(N)ncc2c1 [Example 56, 3-(2-Amino-6-quinazolinyl)-4-methyl-N-(2-methyl-3-((4-morpholinylacetyl)amino)phenyl)benzamide]",≤ 1000
18,"CN(C)CCOc1ccc(-c2ccc3nc(N)ncc3c2)cc1C(=O)Nc1cccc(C(F)(F)F)c1 [Example 57, 5-(2-amino-6-quinazolinyl)-2-((2-(dimethylamino)ethyl)oxy)-N-(3-(trifluoromethyl)phenyl)benzamide]",≤ 1000
19,"CN1CCC(c2cc(NC(=O)c3csc(-c4ccc5nc(N)ncc5c4)c3)cc(C(F)(F)F)c2)CC1 [Example 58, 5-(2-amino-6-quinazolinyl)-N-(3-(1-methyl-4-piperidinyl)-5-(trifluoromethyl)phenyl)-3-thiophenecarboxamide]",≤ 1000

row,Compound,IC50 [nM]
1,"CN(C)CCCN(C)c1c(Cl)cc(C(F)(F)F)cc1NC(=O)c1cc(-c2ccc3nc(N)ncc3c2)ccc1F [Example 59, 5-(2-amino-6-quinazolinyl)-N-(3-chloro-2-((3-(dimethylamino)propyl)(methyl)amino)-5-(trifluoromethyl)phenyl)-2-fluorobenzamide]",≤ 1000
2,"CNC(=O)c1c(F)ccc(NC(=O)c2ccc(C)c(-c3ccc4nc(N)ncc4c3)c2)c1F [Example 60, 3-(((3-(2-amino-6-quinazolinyl)-4-methylphenyl)carbonyl)amino)-2,6-difluoro-N-methylbenzamide]",≤ 1000
3,"Cc1ccc(C(=O)Nc2ccc(N3CCCC3)c(C(=O)N3CCCC3)c2F)cc1-c1ccc2nc(N)ncc2c1 [Example 61, 3-(2-amino-6-quinazolinyl)-N-(2-fluoro-4-(1-pyrrolidinyl)-3-(1-pyrrolidinylcarbonyl)phenyl)-4-methylbenzamide]",≤ 1000
4,"Cc1ccc(NC(=O)c2ccc(C)c(-c3ccc4nc(N)ncc4c3)c2)cc1NC(=O)CN1CCOCC1 [Example 62, 3-(2-amino-6-quinazolinyl)-4-methyl-N-(4-methyl-3-((4-morpholinylacetyl)amino)phenyl) benzamide]",≤ 1000
5,"CCN(CC)CC(=O)Nc1cccc(NC(=O)c2ccc(C)c(-c3ccc4nc(N)ncc4c3)c2)c1C [Example 63, 3-(2-amino-6-quinazolinyl)-N-(3-((N,N-diethylglycyl)amino)-2-methyiphenyl)-4-methylbenzamide]",≤ 1000
6,"CCN(CC)CC(=O)N1CC(C)(C)c2ccc(NC(=O)c3ccc(C)c(-c4ccc5nc(N)ncc5c4)c3)cc21 [Example 64, 3-(2-amino-6-quinazolinyl)-N-(1-(N,N-diethyiglycyl)-3,3-dimethyl-2,3-dihydro-1H-indol-6-yl)-4-methylbenzamide]",≤ 1000
7,"Cc1ccc(C(=O)Nc2ccc3c(c2)N(C(=O)CN2CCOCC2)CC3(C)C)cc1-c1ccc2nc(N)ncc2c1 [Example 65, 3-(2-amino-6-quinazolinyl)-N-(3,3-dimethyl-1-(4-morpholinytacetyl)-2,3-dihydro-1H-indol-6-yl)-4-methylbenzamide]",≤ 1000
8,"Nc1ncc2cc(-c3cc(C(=O)Nc4cccc(C(F)(F)F)c4)ccc3Cl)ccc2n1 [Example 66, 3-(2-amino-6-quinazolinyl)-4-chloro-N-(3-(trifluoromethyl)phenyl)benzamide]",≤ 1000
9,"Cc1ccc(C(=O)Nc2ccc(OCCCN3CCCCC3)cc2)cc1-c1ccc2nc(N)ncc2c1 [Example 67, 3-(2-amino-6-quinazolinyl)-4-methyl-N-(4-((3-(1-piperidinyl)propyl)oxy)phenyl)benzamide]",≤ 1000
10,"Cc1ccc(C(=O)Nc2cccc(OCCCN3CCCCC3)c2)cc1-c1ccc2nc(N)ncc2c1 [Example 68, 3-(2-amino-6-quinazolinyl)-4-methyl-N-(3-((3-(1-piperidinyl)propyl)oxy)phenyl)benzamide]",≤ 1000
11,"Cc1ccc(C(=O)Nc2ccc(OCCCN(C)C)cc2)cc1-c1ccc2nc(N)ncc2c1 [Example 69, 3-(2-amino-6-quinazolinyl)-N-(4-((3-(dimethylamino)propyl)oxy)phenyl)-4-methylbenzamide]",≤ 1000
12,"CCN(CC)CCOc1ccc(NC(=O)c2ccc(C)c(-c3ccc4nc(N)ncc4c3)c2)c(OC)c1 [Example 70, 3-(2-amino-6-quinazolinyl)-N-(4-((2-(diethylamino)ethyl)oxy)-2-(methyloxy)phenyl)-4-methylbenzamide]",≤ 1000
13,"CCN(CC)CCOc1ccc(OC)c(NC(=O)c2ccc(C)c(-c3ccc4nc(N)ncc4c3)c2)c1 [Example 71, 3-(2-amino-6-quinazolinyl)-N-(5-((2-(diethylamino)ethyl)oxy)-2-(methyloxy)phenyl)-4-methylbenzamide]",≤ 1000
14,"Cc1ccc(C(=O)Nc2cccc3c2OC(F)(F)O3)cc1-c1ccc2nc(N)ncc2c1 [Example 72, 3-(2-amino-6-quinazolinyl)-N-(2,2-difluoro-1,3-benzodioxol-4-yl)-4-methybenzamide]",≤ 1000
15,"Cc1ccc(C(=O)Nc2cccc3c2OC(F)(F)C(F)(F)O3)cc1-c1ccc2nc(N)ncc2c1 [Example 73, 3-(2-amino-6-quinazolinyl)-4-methyl-N-(2,2,3,3-tetrafluoro-2,3-dihydro-1,4-benzodioxin-5-yl)benzamide]",≤ 1000
16,"Cc1ccc(C(=O)Nc2cc(C(F)(F)F)ccc2N2CCN(C)CC2)cc1-c1ccc2nc(N)ncc2c1 [Example 74, 3-(2-amino-6-quinazolinyl)-4-methyl-N-(2-(4-methyl-1-piperazinyl)-5-(trifluoromethyl)phenyl)benzamide]",≤ 1000
17,"Cc1ccc(C(=O)Nc2cc(C(F)(F)F)ccc2N2CC[C@@H](N(C)C)C2)cc1-c1ccc2nc(N)ncc2c1 [Example 75, 3-(2-amino-6-quinazolinyl)-N-(2-((3R)-3-(dimethylamino)-1-pyrrolidinyl)-5-(trifluoromethyl)phenyl)-4-methylbenzamide]",≤ 1000
18,"Cc1ccc(C(=O)Nc2cc(C(F)(F)F)ccc2N2CCCCC2)cc1-c1ccc2nc(N)ncc2c1 [Example 76, 3-(2-amino-6-quinazolinyl)-4-methyl-N-(2-(1-piperidinyl)-5-(trifluoromethyl)phenyl)benzamide]",≤ 1000
